Data published in article PMC4187731.
Results are given in words; binding and its absence hold for the method and conditions named. In cells and extracts the contact can be indirect. Some results given as binding are weak or reduced against the parent protein; the word gives no strength. Where a sequence is shown, tags or fusion partners need not be part of it. Blank lines part the entries; values can stand above or below the binder they belong to.

By UniProt entry, the sequences of proteins in these tests, tags left out.
UniProt O00308: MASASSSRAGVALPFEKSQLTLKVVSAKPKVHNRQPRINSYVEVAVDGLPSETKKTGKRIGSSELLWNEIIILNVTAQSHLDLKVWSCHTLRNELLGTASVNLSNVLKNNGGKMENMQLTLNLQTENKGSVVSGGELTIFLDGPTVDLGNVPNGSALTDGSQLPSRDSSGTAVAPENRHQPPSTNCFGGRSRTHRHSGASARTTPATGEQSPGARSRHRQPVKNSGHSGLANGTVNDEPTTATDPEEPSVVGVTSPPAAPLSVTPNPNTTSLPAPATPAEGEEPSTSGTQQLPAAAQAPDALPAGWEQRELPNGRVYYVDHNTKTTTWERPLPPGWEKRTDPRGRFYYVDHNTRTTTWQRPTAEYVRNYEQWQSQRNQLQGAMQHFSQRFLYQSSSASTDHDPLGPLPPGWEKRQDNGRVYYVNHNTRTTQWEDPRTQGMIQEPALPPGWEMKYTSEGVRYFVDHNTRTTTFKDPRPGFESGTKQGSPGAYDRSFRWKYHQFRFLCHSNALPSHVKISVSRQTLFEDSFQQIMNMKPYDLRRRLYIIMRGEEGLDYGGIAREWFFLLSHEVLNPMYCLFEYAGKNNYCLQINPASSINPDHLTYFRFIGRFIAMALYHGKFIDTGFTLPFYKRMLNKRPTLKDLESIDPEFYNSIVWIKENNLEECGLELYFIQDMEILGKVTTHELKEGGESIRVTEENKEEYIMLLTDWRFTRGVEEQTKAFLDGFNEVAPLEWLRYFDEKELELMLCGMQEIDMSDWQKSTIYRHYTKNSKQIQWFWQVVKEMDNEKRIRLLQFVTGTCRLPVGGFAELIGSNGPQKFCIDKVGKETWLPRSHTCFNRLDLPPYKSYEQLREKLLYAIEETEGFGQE

Assays:
[1] = molecular target: SFB-WWP2 (WWP2 triple tagged with S-protein/Flag/SBP) (UniProt O00308); test: co-IP; co-transfected cells (293T in Fig. 6a); NETN lysate; SFB-tagged protein pulled down with streptavidin (SBP) beads, immunoblot with anti-Myc
SFB-tagged ΔNp73 = molecular target: T1, SFB-tagged ΔNp73 (UniProt O15350); test: as above
T1 sequence: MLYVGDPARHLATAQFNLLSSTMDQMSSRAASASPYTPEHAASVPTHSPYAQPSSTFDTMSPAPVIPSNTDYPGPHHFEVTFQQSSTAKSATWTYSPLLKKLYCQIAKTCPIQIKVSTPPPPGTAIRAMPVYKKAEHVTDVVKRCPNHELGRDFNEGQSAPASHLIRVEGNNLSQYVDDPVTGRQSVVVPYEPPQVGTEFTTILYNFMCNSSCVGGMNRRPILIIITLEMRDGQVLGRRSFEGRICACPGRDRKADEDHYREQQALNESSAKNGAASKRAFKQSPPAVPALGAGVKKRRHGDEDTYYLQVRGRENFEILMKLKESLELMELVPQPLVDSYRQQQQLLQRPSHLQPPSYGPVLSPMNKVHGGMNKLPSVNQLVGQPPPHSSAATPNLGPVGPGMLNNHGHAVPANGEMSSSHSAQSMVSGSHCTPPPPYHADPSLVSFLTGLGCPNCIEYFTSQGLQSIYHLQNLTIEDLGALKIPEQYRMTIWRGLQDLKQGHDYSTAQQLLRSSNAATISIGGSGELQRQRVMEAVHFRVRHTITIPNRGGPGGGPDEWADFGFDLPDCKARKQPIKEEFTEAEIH

binding [1]: binds
B1: Myc-PPM1G (enzyme, UniProt O15355 1-546)
chain: MGAYLSQPNTVKCSGDGVGAPRLPLPYGFSAMQGWRVSMEDAHNCIPELDSETAMFSVYDGHGGEEVALYCAKYLPDIIKDQKAYKEGKLQKALEDAFLAIDAKLTTEEVIKELAQIAGRPTEDEDEKEKVADEDDVDNEEAALLHEEATMTIEELLTRYGQNCHKGPPHSKSGGGTGEEPGSQGLNGEAGPEDSTRETPSQENGPTAKAYTGFSSNSERGTEAGQVGEPGIPTGEAGPSCSSASDKLPRVAKSKFFEDSEDESDEAEEEEEDSEECSEEEDGYSSEEAENEEDEDDTEEAEEDDEEEEEEMMVPGMEGKEEPGSDSGTTAVVALIRGKQLIVANAGDSRCVVSEAGKALDMSYDHKPEDEVELARIKNAGGKVTMDGRVNGGLNLSRAIGDHFYKRNKNLPPEEQMISALPDIKVLTLTDDHEFMVIACDGIWNVMSSQEVVDFIQSKISQRDENGELRLLSSIVEELLDQCLAPDTSGDGTGCDNMTCIIICFKPRNTAELQPESGKRKLEEVLSTEGAEENGNSDKKKKAKRD

binding (SFB-tagged ΔNp73): no binding
B2: Myc-HACE1 (enzyme, UniProt Q8IYU2 1-909)
chain: MERAMEQLNRLTRSLRRARTVELPEDNETAVYTLMPMVMADQHRSVSELLSNSKFDVNYAFGRVKRSLLHIAANCGSVECLVLLLKKGANPNYQDISGCTPLHLAARNGQKKCMSKLLEYSADVNICNNEGLTAIHWLAVNGRTELLHDLVQHVSDVDVEDAMGQTALHVACQNGHKTTVQCLLDSGADINRPNVSGATPLYFACSHGQRDTAQILLLRGAKYLPDKNGVTPLDLCVQGGYGETCEVLIQYHPRLFQTIIQMTQNEDLRENMLRQVLEHLSQQSESQYLKILTSLAEVATTNGHKLLSLSSNYDAQMKSLLRIVRMFCHVFRIGPSSPSNGIDMGYNGNKTPRSQVFKPLELLWHSLDEWLVLIATELMKNKRDSTEITSILLKQKGQDQDAASIPPFEPPGPGSYENLSTGTRESKPDALAGRQEASADCQDVISMTANRLSAVIQAFYMCCSCQMPPGMTSPRFIEFVCKHDEVLKCFVNRNPKIIFDHFHFLLECPELMSRFMHIIKAQPFKDRCEWFYEHLHSGQPDSDMVHRPVNENDILLVHRDSIFRSSCEVVSKANCAKLKQGIAVRFHGEEGMGQGVVREWFDILSNEIVNPDYALFTQSADGTTFQPNSNSYVNPDHLNYFRFAGQILGLALNHRQLVNIYFTRSFYKHILGIPVNYQDVASIDPEYAKNLQWILDNDISDLGLELTFSVETDVFGAMEEVPLKPGGGSILVTQNNKAEYVQLVTELRMTRAIQPQINAFLQGFHMFIPPSLIQLFDEYELELLLSGMPEIDVSDWIKNTEYTSGYEREDPVIQWFWEVVEDITQEERVLLLQFVTGSSRVPHGGFANIMGGSGLQNFTIAAVPYTPNLLPTSSTCINMLKLPEYPSKEILKDRLLVALHCGSYGYTMA
